Source: article PMC5643558
No constants are given. Whether binding was seen depends on the method and setting. In cells and extracts the contact can be indirect. These calls come from enrichment with a bait or labelling near it, and not all partners need be listed.

By UniProt entry, the sequences of proteins in these tests, tags left out.
UniProt P19474: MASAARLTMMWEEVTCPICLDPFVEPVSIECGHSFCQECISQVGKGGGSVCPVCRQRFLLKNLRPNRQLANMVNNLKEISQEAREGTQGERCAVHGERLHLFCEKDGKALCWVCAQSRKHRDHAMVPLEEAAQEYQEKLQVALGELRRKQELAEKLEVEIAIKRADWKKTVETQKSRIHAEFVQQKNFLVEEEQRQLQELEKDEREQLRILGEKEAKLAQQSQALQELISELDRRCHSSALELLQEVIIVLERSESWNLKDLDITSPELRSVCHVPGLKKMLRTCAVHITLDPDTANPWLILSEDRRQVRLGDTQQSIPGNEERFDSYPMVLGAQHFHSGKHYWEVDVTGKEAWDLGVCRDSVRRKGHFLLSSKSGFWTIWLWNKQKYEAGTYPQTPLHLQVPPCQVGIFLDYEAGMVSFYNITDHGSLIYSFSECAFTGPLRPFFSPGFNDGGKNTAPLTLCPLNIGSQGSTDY
UniProt P31749: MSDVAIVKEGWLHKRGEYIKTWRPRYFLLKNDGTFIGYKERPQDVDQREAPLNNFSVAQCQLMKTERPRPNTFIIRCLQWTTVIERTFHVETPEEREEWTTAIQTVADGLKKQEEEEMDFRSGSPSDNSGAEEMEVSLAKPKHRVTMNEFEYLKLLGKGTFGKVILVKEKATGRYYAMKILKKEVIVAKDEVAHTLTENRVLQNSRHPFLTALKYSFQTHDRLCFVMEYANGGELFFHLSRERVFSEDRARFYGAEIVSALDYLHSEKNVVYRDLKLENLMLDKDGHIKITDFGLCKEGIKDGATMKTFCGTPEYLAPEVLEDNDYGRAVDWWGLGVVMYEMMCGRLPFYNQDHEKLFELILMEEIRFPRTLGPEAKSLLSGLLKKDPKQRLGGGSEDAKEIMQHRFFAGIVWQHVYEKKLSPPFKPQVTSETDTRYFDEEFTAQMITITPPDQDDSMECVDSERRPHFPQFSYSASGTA
UniProt Q9Y243: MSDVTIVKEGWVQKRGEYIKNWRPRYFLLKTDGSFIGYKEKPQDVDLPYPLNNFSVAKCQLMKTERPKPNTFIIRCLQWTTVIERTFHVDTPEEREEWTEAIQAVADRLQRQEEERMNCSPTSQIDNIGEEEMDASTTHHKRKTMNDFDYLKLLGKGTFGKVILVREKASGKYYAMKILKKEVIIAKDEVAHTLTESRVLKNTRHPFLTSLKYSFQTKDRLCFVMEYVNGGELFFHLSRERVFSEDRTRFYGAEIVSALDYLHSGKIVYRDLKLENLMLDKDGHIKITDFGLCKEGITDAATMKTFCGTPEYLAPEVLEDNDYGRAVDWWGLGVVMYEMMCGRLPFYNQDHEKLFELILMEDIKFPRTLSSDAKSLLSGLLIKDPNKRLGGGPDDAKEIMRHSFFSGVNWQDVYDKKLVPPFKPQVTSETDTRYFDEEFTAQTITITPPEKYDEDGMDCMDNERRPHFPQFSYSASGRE
UniProt P31751: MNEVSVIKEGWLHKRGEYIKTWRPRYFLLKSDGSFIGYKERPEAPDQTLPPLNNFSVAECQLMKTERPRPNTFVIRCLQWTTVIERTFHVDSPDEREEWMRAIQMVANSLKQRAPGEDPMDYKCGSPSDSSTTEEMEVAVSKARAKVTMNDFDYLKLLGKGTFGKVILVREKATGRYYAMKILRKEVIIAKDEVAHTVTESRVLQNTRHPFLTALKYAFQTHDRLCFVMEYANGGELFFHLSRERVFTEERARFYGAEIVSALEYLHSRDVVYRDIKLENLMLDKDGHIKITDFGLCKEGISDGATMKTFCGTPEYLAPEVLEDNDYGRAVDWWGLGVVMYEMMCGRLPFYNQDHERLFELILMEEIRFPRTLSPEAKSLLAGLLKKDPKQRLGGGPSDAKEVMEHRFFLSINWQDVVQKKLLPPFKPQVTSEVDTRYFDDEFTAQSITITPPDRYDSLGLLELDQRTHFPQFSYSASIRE

Target: T1, endogenous PFKP (phosphofructokinase 1 platelet isoform) (human (endogenous in U251, U87/EGFR, U87/EGFRvIII and 293T)) (UniProt Q01813)
T1 sequence: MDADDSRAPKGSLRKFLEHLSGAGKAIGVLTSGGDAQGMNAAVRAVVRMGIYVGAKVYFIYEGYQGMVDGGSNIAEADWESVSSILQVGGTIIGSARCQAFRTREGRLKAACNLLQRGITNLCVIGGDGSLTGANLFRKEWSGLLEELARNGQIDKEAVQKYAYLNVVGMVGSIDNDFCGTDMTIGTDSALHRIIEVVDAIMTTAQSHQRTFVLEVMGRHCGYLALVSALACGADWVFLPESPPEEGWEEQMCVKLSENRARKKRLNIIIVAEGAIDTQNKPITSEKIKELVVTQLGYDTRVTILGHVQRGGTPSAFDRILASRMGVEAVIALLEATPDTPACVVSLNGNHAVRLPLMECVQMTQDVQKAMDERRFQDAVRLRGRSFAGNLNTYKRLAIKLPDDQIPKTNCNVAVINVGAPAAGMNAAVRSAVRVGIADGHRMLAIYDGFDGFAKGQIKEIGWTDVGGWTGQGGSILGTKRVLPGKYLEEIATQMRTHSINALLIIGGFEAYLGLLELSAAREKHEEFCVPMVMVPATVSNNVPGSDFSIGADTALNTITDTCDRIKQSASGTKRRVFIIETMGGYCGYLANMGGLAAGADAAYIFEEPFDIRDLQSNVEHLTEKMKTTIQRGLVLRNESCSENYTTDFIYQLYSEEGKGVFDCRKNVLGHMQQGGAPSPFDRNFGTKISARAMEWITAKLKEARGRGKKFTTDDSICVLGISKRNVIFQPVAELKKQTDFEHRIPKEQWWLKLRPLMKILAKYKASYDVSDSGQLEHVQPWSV
Test: affinity purification with mass spectrometry; PFKP immunoprecipitated from U251 cells, LC-MS/MS of the immunoprecipitates

TRIM21 (tripartite motif-containing protein 21) in U251 and U87/EGFRvIII cells (from UniProt P19474 1-475)
binding: binds

AKT1 (found in PFKP immunoprecipitates) (from UniProt P31749 1-480)
binding: binds

AKT3 (found in PFKP immunoprecipitates) (from UniProt Q9Y243 1-479)
binding: binds

AKT2 (found in PFKP immunoprecipitates) (from UniProt P31751 1-481)
binding: binds
